# Library screening results

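Viability assay of Plasmodium falciparum sporozoites; the read-out is not stated. The concentration is filed as 10 mM, unlikely as a test dose, so the dose is not known. Higher reads as lower viability (inferred: compounds with an IC50 in retests scored well above the rest). Strong results were mostly tested again. Size under these conditions: about 34,000 compounds, about 280 of them at 50% or above in at least one test.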

The filed quantity is “Percent Effect” (%). The record does not define 0% and 100%; most values in the screen are far below 50% and negative numbers occur (in some assays of this library far below -100). Compounds were drawn at random from those tested, without regard to their results. Two or more numbers in one place are separate tests of the same structure; such repeats can differ widely.

Result for CC1CCCN(c2ncc(C(=O)NCc3ccc(F)c(Cl)c3)c(N)n2)C1 (stereo unspecified) was 0.8242%. For O=C(NCC1(N2CCOCC2)CCSC1)Nc1ccc(F)cc1 (stereo unspecified) the result was 5.059%. For CCC(=O)Nc1cc(Br)cnc1OCC(F)(F)F the result was -5.006%. COc1cc(CNC(=O)Nc2cc(C(F)(F)F)c[nH]c2=O)ccn1 gave 7.09%. With COCCOc1ccccc1C(=O)N1CCCCC1c1nccs1 (stereo unspecified) the screen gave 2.88%. For O=C(NCCNc1ncccn1)N1CCN(Cc2cccnc2)CC1 the result was 10.4%. O=C(c1cccnc1)N1CCc2c(nc(N3CCCC3)[nH]c2=O)C1 read 11.12%. Nc1c(N2CCCC2)ncnc1N1CCOCC1 gave -18.37%.

Result for O=C(NCCCOCC1CC1)Nc1ccc(-n2cncn2)c(F)c1 was 1.959%. Result for O=C(c1ccccn1)N1CCc2nc(-c3cnccn3)nc(O)c2C1 was -6.28%. Result for CCOc1ccc(C(=O)N2CCCCC2Cn2nc(C)cc2C)cn1 (stereo unspecified) was 14.94%. For O=C(NCCc1nc2ccccc2s1)c1coc(CN2CCOCC2)c1 the result was 6.243%. O=C(c1cccs1)N1CCC(n2nc(-c3ccco3)ccc2=O)CC1 gave -3.673%. With CC(C)NC(=O)N1CCc2onc(C(=O)Nc3cccnc3)c2C1.O=C(O)C(F)(F)F the screen gave 7.015%. For O=C(O)C(F)(F)F.O=C(O)C(F)(F)F.[H][C@@]12CN(Cc3csc(C)n3)CCO[C@]1([H])CN(Cc1nccs1)C2 the result was -0.2433%. For CCS(=O)(=O)N1CCC2(CCN(Cc3cccc(OC)c3)CC2)CC1.O=C(O)C(F)(F)F the result was -5.133%.

COCC1c2nnn(CC3CC3)c2CCN1C(=O)c1cccc(F)c1 (stereo unspecified) read 1.384%. For COCCNC(=O)Cn1nc(C(C)C)c2cnn(C(C)(C)C)c2c1=O the result was 0.3542%. CC(=O)N(Cc1noc(C2CC2)n1)C1CCN(Cc2cccnc2)C1 (stereo unspecified) gave -5.263%. Result for Cc1ccc(CN2CCC3(CC(C(=O)NC4CCC4)=NO3)C2)o1 (stereo unspecified) was -15.33%. CCN(CC)S(=O)(=O)c1cc(Br)ccc1OC read -20.9% and -5.011%. For c1cc(C2CCCN2Cc2nnnn2C2CC2)cs1 (stereo unspecified) the result was -2.464%. CCNc1cc2c(nn1)CCN(C(=O)c1ccnc(C)n1)C2 gave -0.4965%. For c1cnnc(N2CCCC(NCc3nnc(-c4ccco4)o3)C2)c1 (stereo unspecified) the result was 22.71%.

With CC(C)NC(=O)CCNC(=O)CCc1cc(Cl)cs1 the screen gave -14.22%. CNC(=O)CN1CCOC(c2cccc(N)n2)C1 (stereo unspecified) read 2.813%. With Cc1nn(C)c(N(C)C)c1CNCCOc1ccc2c(c1)OCO2.Cl the screen gave 19.85%. O=C(O)C(F)(F)F.[H][C@@]12CN(C(=O)[C@H]3CCCO3)C[C@]1([H])C(=O)N(CCN1CCCC1)C2 gave 2.189%.

Data taken from ChEMBL document CHEMBL3988442, “University of Dundee, Small-Polar-MMV Screening Library” (2021).